These are yes or no findings as the source states them, for the method shown. In cells and extracts the contact can be indirect. These calls come from enrichment with a bait or labelling near it, and not all partners need be listed. Where a sequence is shown, tags or fusion partners need not be part of it.
Target: CRYAB with a TurboID tag fused to its C-terminus (UniProt P02511)
Test: proximity labelling; BioID: CRYAB-TurboID or cytoplasmic TurboID in wild-type or TANGO2 knockout CAL51 cells, 500 µM biotin for 10 min; enrichment of biotinylated proteins, mass spectrometry

Amino acid sequences for entries named in this document (tags omitted).
UniProt P21796: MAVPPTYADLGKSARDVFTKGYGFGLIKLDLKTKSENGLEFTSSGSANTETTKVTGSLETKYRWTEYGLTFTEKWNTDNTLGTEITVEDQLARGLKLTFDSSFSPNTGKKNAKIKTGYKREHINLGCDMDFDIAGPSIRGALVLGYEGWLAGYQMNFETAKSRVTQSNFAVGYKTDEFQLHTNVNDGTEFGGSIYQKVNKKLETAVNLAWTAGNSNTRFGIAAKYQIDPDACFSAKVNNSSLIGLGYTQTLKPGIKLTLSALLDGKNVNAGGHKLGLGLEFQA

For VDAC1 (from UniProt P21796 1-283), the binding was “binds”.

Source: publication PMC12144310
